From PubChem BioAssay record AID1053133 (Broad Institute, 2014).

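Plate-reader measure of the Venus reporter marking one vaccinia stage in infected cells (the cell line is not named here); read time unknown. The test concentration is not given here. Percent change in Venus reporter signal; lower (more negative) values mean stronger inhibition of that viral stage.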

Values are in %. How 0% and 100% were set is not given here. Common to all entries: measured here: Venus reporter, other viral stage. This is a side read-out of the assay, for part of the compounds, not drawn at random.

compound,activity change (Venus) (%)
COc1cccc(NC(=O)N(C)C[C@H]2Oc3cc(C#Cc4ccncc4)ccc3S(=O)(=O)N([C@@H](C)CO)C[C@H]2C)c1,-39.76
O=C(C1CC1)N1CC(=O)N2[C@H](C1)[C@@H](c1ccc(-c3ccccc3F)cc1)[C@@H]2CO,-27.63
C[C@@H]1CN([C@H](C)CO)C(=O)c2c(c3ccccc3n2C)-c2ccccc2CO[C@@H]1CN(C)C(=O)Nc1ccnc(N2CCOCC2)c1,-47.95
CCCC#Cc1ccc2c(c1)O[C@H](CN(C)S(=O)(=O)c1cccc(F)c1)[C@H](C)CN([C@@H](C)CO)S2(=O)=O,-30.4
O=C(C[C@H]1CC[C@H]2[C@@H](COC[C@@H](O)CN2C(=O)Nc2ccc(Cl)c(Cl)c2)O1)NCc1ccc(F)cc1,-28.9
C[C@H](CO)N1C[C@H](C)[C@H](CN(C)C(=O)c2ccccn2)Oc2cc(C#Cc3ccccc3)ccc2S1(=O)=O,-26.38
N#C[C@H]1[C@H](c2ccc(C#Cc3ccccc3F)cc2)[C@H](CO)N1C(=O)C1CC1,-39.88
C[C@@H]1CN([C@@H](C)CO)C(=O)Cc2cc(NS(=O)(=O)c3ccc(F)cc3)ccc2O[C@H]1CN(C)Cc1ccccc1,-29.9
Cc1ccc(S(=O)(=O)N[C@@H]2CC[C@H](CC(=O)N3CCc4ccccc4C3)O[C@@H]2CO)cc1,-28.96
C[C@@H]1CN([C@@H](C)CO)C(=O)c2cc(NS(=O)(=O)c3ccc(F)cc3)ccc2O[C@@H](C)CCCCO[C@H]1CN(C)CC1CCCCC1,-54.93
O=C1C[C@@](C(=O)NCCN2CCOCC2)(c2ccc([N+](=O)[O-])cc2)[C@@H](c2ccc(CO)cc2)N1CC12CC3CC(CC(C3)C1)C2,-66.2
O=C(C[C@@H]1CC[C@H]2[C@@H](COC[C@@H](O)CN2CCc2ccccc2)O1)N1CCC(Cc2ccccc2)CC1,-47.25
O=C(NC1CCCC1)N1CCCCN2[C@@H](CO)[C@H](c3ccc(/C=C/c4ccccc4)cc3)[C@@H]2C1,-74.35
COc1cccc(S(=O)(=O)N(C)C[C@@H]2Oc3ncc(-c4cccc(C(F)(F)F)c4)cc3C(=O)N([C@H](C)CO)C[C@@H]2C)c1,-30.12
CN1c2ccc(-c3ccccc3)cc2[C@H]2[C@H](CCN2S(=O)(=O)c2ccccc2F)[C@@H]1CO,-53.18
C[C@@H]1CCCCO[C@@H](CN(C)C(=O)Nc2ccc(C(F)(F)F)cc2)[C@H](C)CN([C@H](C)CO)C(=O)c2cc(NS(C)(=O)=O)ccc2O1,-32.83
O=C(C[C@H]1CC[C@@H]2[C@H](COC[C@H](O)CN2Cc2ccc(C(F)(F)F)cc2)O1)NCCc1ccccc1,-35.58
N#C[C@H]1[C@H](c2ccccc2C2=CCCCC2)[C@H](CO)N1C(=O)NC1CCCCC1,-28.76
C[C@@H]1CN([C@@H](C)CO)C(=O)Cc2cc(NC(=O)Nc3ccc4c(c3)OCO4)ccc2O[C@@H]1CN(C)CC1CCCCC1,-36.31
COc1ccc(S(=O)(=O)N(C)C[C@@H]2OCCCC[C@H](C)Oc3ccc(NC(=O)CCC(F)(F)F)cc3C(=O)N([C@@H](C)CO)C[C@@H]2C)cc1,-39.41
COc1ccccc1-c1ccc2c(c1)[C@H]1[C@H](CCN1C(=O)C1CCCCC1)[C@@H](CO)N2,-62.37
O=C(C1CCC1)N1C[C@@H]2N[C@H](C1)C2c1ccc(-c2ccccc2F)cc1 (stereo partly specified),-93.67
C[C@@H]1CN([C@H](C)CO)C(=O)c2cccc(NC(=O)NC3CCCCC3)c2O[C@@H]1CN(C)Cc1ccc(Cl)c(Cl)c1,-54
COc1cccc(-c2ccc3c(c2)O[C@@H](CN(C)C(=O)c2ccccc2F)[C@H](C)CN([C@@H](C)CO)S3(=O)=O)c1,-20.68
COc1ccc(CN(C)C[C@@H]2OCCCC[C@H](C)Oc3ccc(NC(=O)C4CCCCC4)cc3C(=O)N([C@H](C)CO)C[C@H]2C)cc1,-51.92
C[C@@H]1CN([C@@H](C)CO)C(=O)Cc2cc(NC(=O)C3CCCCC3)ccc2O[C@@H]1CN(C)Cc1ccc(Oc2ccccc2)cc1,-32.81
COc1ccc(C#Cc2cnc3c(c2)C(=O)N([C@H](C)CO)C[C@H](C)[C@H](CN(C)C(=O)Nc2ccc(F)cc2)O3)cc1OC,-46.9
O=C(C[C@@H]1CC[C@@H]2[C@H](COC[C@H](O)CN2S(=O)(=O)c2cccc(Cl)c2)O1)NCc1ccc2c(c1)OCO2,-19.95
O=C(C[C@@H]1CC[C@H]2[C@@H](COC[C@H](O)CN2S(=O)(=O)c2ccc(Cl)cc2)O1)NCc1ccc(Cl)c(Cl)c1,-39.45
O=C(Nc1cccc(F)c1)N1CCCCN2[C@@H](CO)[C@@H](c3ccc(C#Cc4ccccc4)cc3)[C@@H]2C1,-71.06
C[C@@H]1CCCCO[C@H](CN(C)S(=O)(=O)c2ccc(Cl)cc2)[C@@H](C)CN([C@@H](C)CO)C(=O)c2cc(NC(=O)Nc3ccc(F)cc3)ccc2O1,-3.695

For reference, 3 entries once more:

| compound | activity change (Venus) (%) |
|---|---|
| `O=C(C[C@H]1CC[C@H]2[C@@H](COC[C@@H](O)CN2C(=O)Nc2ccc(Cl)c(Cl)c2)O1)NCc1ccc(F)cc1` | -28.9 |
| `C[C@@H]1CN([C@@H](C)CO)C(=O)Cc2cc(NC(=O)C3CCCCC3)ccc2O[C@@H]1CN(C)Cc1ccc(Oc2ccccc2)cc1` | -32.81 |
| `C[C@@H]1CN([C@H](C)CO)C(=O)c2cccc(NC(=O)NC3CCCCC3)c2O[C@@H]1CN(C)Cc1ccc(Cl)c(Cl)c1` | -54 |